This note sets out measurements from PubChem BioAssay AID2685 (National Center for Advancing Translational Sciences (NCATS), 2010).

The list shows a part of the results. The main result of the screen is listed elsewhere. These columns were measured beside it and carry no call. Most of these compounds were active or inconclusive in the main read-out, so they are no random draw. Words in brackets tell the shape of the fitted curve; partial curves, single points and poor fits give uncertain potencies.

A short description of this experiment: qHTS Assay for Lipid Storage Modulators in Drosophila S3 Cells.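 For cell number change: cells counted by Cell Tracker Red CMTPX staining in the red channel.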 The following applies: BODIPY lipid droplet fluorescence, 18-24 h; for cell number change: measured here: cell count max response, cells fed with added oleic acid. An outline of the steps: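 Drosophila S3 cells got compounds at several concentrations plus oleic acid (400 uM solution). Laser-scanning cytometry with 488 nm excitation read lipid droplets at 500-530 nm and cells at 575-640 nm. Percent activity was relative to 20 uM Triacsin C.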
(In qHTS, concentration-response curves come from the screen itself.)

Setting [1] is: measured here: lipid fluorescence (Fed channel) AC50, cells fed with added oleic acid.
The mark [2] stands for this setting: measured here: cell number channel AC50, cells fed with added oleic acid.

In general, AC50 refers to the concentration giving half of the maximal activity seen. Low readings indicate greater potency, high ones weaker potency. For `O=C(C[n+]1ccc(CCSc2ccc(F)cc2)cc1)c1ccccc1`, the AC50 under setting [1] is 3.66 µM [falling, partial curve].

With `COc1ccc(NC(=O)Nc2c(SC)nsc2SC)cc1`, the cell number change is -48.6%. The AC50 under setting [2] was 13 µM [falling, partial curve, poor fit].

`O=C(CCC(=O)N(CC(=O)NC1CCCCC1)c1ccc2c(c1)OCO2)Nc1ccccn1`: the cell number change is 47.1%. In addition, under setting [2], the concentration at half-maximal activity (AC50) was 0.291 µM [rising, full curve]. Moreover, the AC50 under setting [1] is 0.92 µM [rising, full curve, poor fit].

On to `CCCCCC(=O)Nc1ccc(S(=O)(=O)Nc2nccnc2OC)cc1`, for which the cell number change amounted to 116%. Besides, under setting [2], the AC50 was 16.4 µM [rising, partial curve].

Take `CN1C2CCC1CC(NC(=O)CSc1ccc(Cl)cc1)C2` (stereo not drawn): the cell number change is -14.5%. Also, under setting [1], the AC50 is 0.0058 µM [falling, full curve, poor fit].

Turning to `CCOc1cccc(/C=N/NC(=O)c2ccc3c(c2)OCCO3)c1O`, the AC50 under setting [1] is 29.1 µM [falling, single point].

For the molecule `O=C(Oc1c(Cl)cc(Cl)c2cccnc12)c1cccc([N+](=O)[O-])c1`, the cell number change is -9.07%. Also, the AC50 under setting [1] is 16.4 µM [falling, single point].

In the case of `Cc1cc(C)nc(SCCC(=O)N(C)C)n1`, the cell number change was -0.119%. Further, under setting [1], the AC50 is 0.206 µM [rising, full curve, poor fit].

In the case of `COc1ccccc1C(=O)N(CN1CCCC1=O)c1cccc(Cl)c1`, the cell number change came out at 97%. Moreover, the AC50 under setting [2] is 20.6 µM [rising, single point].

As for `Cc1ccc(C(=O)NC(=S)Nc2ccc(S(=O)(=O)N3CCN(C)CC3)cc2)cc1`, under setting [1], the concentration at half-maximal activity (AC50) is 0.164 µM [falling, full curve, poor fit].

With `CCn1nc(C)c(CNC(=O)C2CCC(=O)N(CCc3ccc(OC)cc3)C2)c1C` (stereo not drawn), the cell number change is -0.917%. The AC50 under setting [1] is 0.259 µM [falling, full curve, poor fit].

Consider `Fc1ccc2c(c1)C(c1ccncc1)=NNC(c1cccnc1)=N2`, for which the cell number change came to 4.85%. Further, the concentration at half-maximal activity (AC50) under setting [1] was 8.2 µM [falling, single point].

For the molecule `CCCCn1c(N)c(N(CCOC)C(=O)c2ccc(COc3ccccc3)o2)c(=O)[nH]c1=O`, the cell number change is -50%. For the same molecule, the AC50 under setting [2] is 0.206 µM [falling, partial curve].

Take `O=C(NNC(=O)c1cc(F)c(F)cc1Cl)c1ccc(NS(=O)(=O)c2cccs2)cc1`: the cell number change came out at 5.49%.

`N=C1C(c2nc(-c3ccc(Cl)cc3)cs2)=C(O)CN1CCCN1CCOCC1`: the cell number change was -24.9%. For the same molecule, the AC50 under setting [1] was 2.31 µM [rising, partial curve].

As to `CN1CCN(c2ccc(S(=O)(=O)N3CCCCC3)cc2NC(=O)COc2ccc(F)cc2)CC1`, the cell number change stood at 92.6%. The AC50 under setting [2] is 16.4 µM [rising, partial curve].

`CN1CCN(c2ccc(NC(=O)COc3ccccc3[N+](=O)[O-])cc2)CC1`: the cell number change was -30.4%.

Consider `OCC(CO)(CO)N=Cc1cc(Br)ccc1O`, for which the cell number change was determined as 26.7%. Further, the half-maximal activity concentration (AC50) under setting [2] is 0.731 µM [rising, full curve, poor fit]. The AC50 under setting [1] is 20.6 µM [rising, single point].

Take `Cc1cccc(NC(=S)NCC23C=CC(O2)C2C(=O)N(c4ccc(Cl)cc4)C(=O)C23)c1` (stereo not drawn): the cell number change was -32.5%. Moreover, the AC50 under setting [2] was 14.6 µM [falling, partial curve, poor fit].

In the case of `CCn1c2ccccc2c2cc(/C(C)=N/O)ccc21`, the cell number change was -25.7%. Also, the half-maximal activity concentration (AC50) under setting [1] was 29.1 µM [falling, single point].

For `Cc1c(NC(=O)c2ccco2)c(=O)n(-c2ccccc2)n1C`, the cell number change stood at 32.8%. For the same molecule, the half-maximal activity concentration (AC50) under setting [2] is 32.6 µM [rising, single point].

For the molecule `O=S(=O)(Nc1ccccc1O)c1ccc(Cl)nc1`, the cell number change was 19.6%. Besides, the half-maximal activity concentration (AC50) under setting [1] was 0.259 µM [rising, partial curve, poor fit].

Turning to `CN1C(=O)c2cccc(NC(=O)Cc3ccccc3)c2C1=O`, the cell number change is 8.59%.

In the case of `O=P(O)(C(O)c1ccccc1)C(O)c1ccccc1` (stereo not drawn), the cell number change was 26.6%. For the same molecule, the AC50 under setting [1] is 0.517 µM [falling, single point].

Take `Cc1cc(C)cc(OC(C)C(=O)NCCCn2ccnc2)c1` (stereo not drawn): the cell number change was -2.63%.

On to `CCOc1ccc(NC(=S)NC23CC4CC(CC(C4)C2)C3)cc1`, for which the cell number change was -5.61%. Also, the AC50 under setting [1] was 29.1 µM [rising, single point].

On to `CCc1ccc(N(CC(=O)NC2CCCC2)S(=O)(=O)c2c(C)noc2C)cc1`, for which the cell number change came to 18.9%. The AC50 under setting [1] is 29.1 µM [rising, single point].

For `O=C(CCCSc1nc2ccccc2[nH]1)NCc1ccccc1`, the cell number change is -13.9%. The concentration at half-maximal activity (AC50) under setting [1] is 7.31 µM [falling, partial curve, poor fit].

On to `Cn1c(SCc2ccc(Br)cc2)nc2c(c1=O)SCC2`, for which the cell number change was determined as 10.6%.

As for `CCCOc1ccc(/C(CC)=N/NC(=O)C2(C)CC2(Br)Br)cc1` (stereo not drawn), the cell number change was determined as 5.02%. Also, under setting [1], the AC50 is 0.206 µM [rising, full curve, poor fit].

Turning to `CCC(=NC(CC)CO)C1=C(O)CC(C)(C)CC1=O` (stereo not drawn), the cell number change was -6.98%.

In the case of `Cc1cc(NC(=O)COC(=O)C2CC(=O)N(c3ccc(C)c(Cl)c3)C2)no1` (stereo not drawn), the cell number change was found to be 2.99%.

On to `CN(C(=O)COC(=O)C1=COCCO1)C1(C#N)CCCCC1`, for which the cell number change was determined as 35%. For the same molecule, the AC50 under setting [1] is 25.9 µM [rising, single point].

On to `COc1cccc(Oc2ccc(N/C=C/C(=O)C(C)(C)C)cc2)c1`, for which the cell number change turned out to be 37.9%. The AC50 under setting [2] is 13 µM [rising, partial curve, poor fit].

Regarding `CCN(CC)CCN(Cc1cc2cc3c(cc2[nH]c1=O)OCO3)C(=S)NCCCN(C)C`, the cell number change was determined as 16.6%. Further, the concentration at half-maximal activity (AC50) under setting [1] was 0.0517 µM [rising, full curve, poor fit].

Take `Cc1cccc2cc(CN(Cc3ccco3)C(c3nnnn3CCc3ccccc3)C(C)C)c(=O)[nH]c12` (stereo not drawn): the cell number change was -31.4%. Under setting [1], the AC50 is 7.31 µM [falling, partial curve].

For `Cc1c(NC=C(C#N)C#N)c(=O)n(-c2ccccc2)n1C`, the cell number change is -38.7%. Moreover, under setting [2], the half-maximal activity concentration (AC50) is 10.3 µM [falling, partial curve, poor fit]. Further, under setting [1], the AC50 was 16.4 µM [falling, single point].

As to `Cn1cnnc1SCC(=O)NC1CCCN(Cc2ccc(Cl)cc2)C1` (stereo not drawn), the cell number change came out at 50.9%.

In the case of `Cc1cc(=O)n2nc(N3CCCC(C(=O)N4CCN(c5ccccc5)CC4)C3)sc2n1` (stereo not drawn), the AC50 under setting [2] is 1.16 µM [falling, single point].

On to `Cc1ccc(C)c2c1cc(C)c1nnc(SCC(=O)Nc3nc4c(s3)CCCC4)n12`, for which the cell number change is -4.55%. Also, the AC50 under setting [1] is 6.51 µM [falling, single point].

For the molecule `O=C(NCc1ccc(F)cc1)c1cc(C(=O)C2CC2)c[nH]1`, the cell number change is -16.7%. Further, the concentration at half-maximal activity (AC50) under setting [1] was 0.116 µM [rising, full curve, poor fit].
